According to PubChem BioAssay AID504467 (National Center for Advancing Translational Sciences (NCATS), 2011):
Out of some 330,000 compounds screened, about 7,700 (2.3%) were called active. Inconclusive means that the source gave no clear call. Such entries were picked first, then a sample of the others. The call rests on the fitted dose curve; in most records, active means well fitted inhibition curve with a large enough effect; inconclusive means small, poorly fitted or top-dose-only effect, or effect the other way; inactive means flat fitted curve, though single readings scatter. Potencies beside an inconclusive call are fits to weak or partial responses and may not hold up.
Potency means the concentration at half of the fitted maximal effect.

Assay: qHTS screen for small molecules that inhibit ELG1-dependent DNA repair in human embryonic kidney (HEK293T) cells expressing luciferase-tagged ELG1; further: nearly all actives have a fitted effect of over 55% in size
Settings: HEK293T ELG1-luciferase reporter, luminescence, 16 h, DNA damage induced by 5-fluorouridine; series mostly up to 46.1 µM
How it was run: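 5-Fluorouridine DNA damage + compound/DMSO, 2,000 cells/well, 16 h, 37 °C/5% CO2. ONE-Glo, 30 min RT, luminescence. Readout = decrease in reporter signal.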
For `COc1ccccc1OCc1nc2ccccc2n1C`, the Potency was inconclusive: 23.1 µM [activator, partial curve].
For `COc1ccc(N2CCN(S(=O)(=O)c3ccc4c(c3)NC(=O)C(C)S4)CC2)cc1` (centres undefined), the Potency was “inactive”.
In the case of `O=C(CNc1ccccc1Cl)Nc1cc(S(=O)(=O)N2CCOCC2)ccc1Cl`, the Potency is reported as inconclusive: 16.4 µM [inhibitor, single point].
For `CC1=C(C(=O)Nc2cccc([N+](=O)[O-])c2)C2(CCC(C)CC2)OC1=O` (centres undefined), the Potency was inconclusive: 18.3 µM [inhibitor, single point].
In the case of `O=C(Cc1ccccc1)Nc1ccc(Cl)cn1`, the Potency is reported as inconclusive: 23.1 µM [activator, single point].
In the case of `O=C(c1cc(-c2ccncc2)nc2ccccc12)N1CCN(c2ccccc2O)CC1`, the Potency is reported as inconclusive: 20.6 µM [inhibitor, partial curve].
With `CCc1ccccc1N(C(=O)CCC(=O)Nc1cc(C)on1)C(C(=O)NC1CCCC1)c1ccco1` (centres undefined) the Potency was inconclusive: 29.1 µM [inhibitor, partial curve, poor fit].
In the case of `COc1cc(/C=C2/SC(=S)N(CC3CCCO3)C2=O)ccc1O` (centres undefined), the Potency is reported as inconclusive: 10.3 µM [activator, partial curve].
For `CCOC(=O)c1cnc2c(OC)cccc2c1N1CC(C)CC(C)C1` (centres undefined), the Potency was inconclusive: 29.1 µM [inhibitor, single point].
In the case of `COc1ccc(Cc2nc3ccc(C(=O)N(C)Cc4nccs4)cc3o2)cc1OC`, the Potency is reported as active: 4.11 µM.
For `O=C(CSc1ncnc2c1nnn2Cc1ccccc1F)N1CCN(c2ccccc2)CC1`, the Potency was “inactive”.
For `Cc1cccc(NC(=S)N(CCCN2CCCC2)Cc2cccn2Cc2ccc(Cl)cc2)c1`, the Potency was “inactive”.
For `COc1cc(/C=N/N2C(=O)CSC2=S)cc(Br)c1O`, the Potency was “inactive”.
In the case of `CCCNC(=O)CN1C(=O)NC(c2ccccc2)(c2ccccc2)C1=O`, the Potency is reported as “inactive”.
With `CCOC(=O)c1cc2c(C)n(-c3ccc(N(C)C)cc3)c(C)c2cc(C(=O)OCC)c1=O` the Potency was inconclusive: 2.06 µM [activator, partial curve, poor fit].
In the case of `O=C1N(c2ccccc2)C(c2ccccc2)N2CCCN12` (centres undefined), the Potency is reported as inconclusive: 6.51 µM [inhibitor, single point].
In the case of `Nc1nc(SCc2ccccc2)n[nH]1`, the Potency is reported as inconclusive: 23.1 µM [activator, partial curve, poor fit].
For `CN(C)c1ccc(-c2nnn(CC(=O)Nc3ccc4c(c3)OCCO4)n2)cc1`, the Potency was inconclusive: 18.3 µM [activator, partial curve, poor fit].
In the case of `COc1ccc(C(=O)OCC(=O)NCc2ccco2)cc1S(=O)(=O)N1CCN(c2cccc(Cl)c2)CC1`, the Potency is reported as inconclusive: 23.1 µM [inhibitor, partial curve, poor fit].
